The values that follow come from the supplement of paper PMC4604168 (melanoma cell lines).

Structures are written as SMILES. The list shows a part of the results. Single values are uncertain, as repeats are few or missing.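 Cells were imaged in 1,536-well plates, and nuclei stained with an antibody against cleaved PARP were counted against all DNA-stained nuclei to give the apoptosis fraction. Screening doses were chosen to leave most cells alive, and resting and induced cleaved-PARP levels differ strongly between cell lines.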

The test system of this assay is UACC257. Kind of assay: cleaved PARP positive nuclei fraction relative to DMSO control; melanoma cells; higher = more apoptosis. To be noted: library dose: low library concentration; 72 h.
On to `Cc1cn(-c2cc(NC(=O)c3ccc(C)c(Nc4nccc(-c5cccnc5)n4)c3)cc(C(F)(F)F)c2)cn1` [nilotinib] + Cc1ccc(NC(=O)c2cccc(N(C)C)c2)cc1NC(=O)c1ccc(O)cc1 [ZM336372] (first compound 0.2 µM, partner dose 2 µM), for which the “cleaved PARP positive nuclei fraction” value came out at 140%.
To `CC[C@]1(O)C[C@H]2CN(CCc3c([nH]c4ccccc34)[C@@](C(=O)OC)(c3cc4c(cc3OC)N(C=O)[C@H]3[C@@](O)(C(=O)OC)[C@H](OC(C)=O)[C@]5(CC)C=CCN6CC[C@]43[C@@H]65)C2)C1` [vincristine] + O=C(Nc1cccc(Cl)c1)Nc1ncc(CCNc2ncnc3ccsc23)s1 [SNS314] (first compound 0.0001 µM, partner dose 0.0008 µM) belongs 275%; to `Cc1ccc(Nc2nccc(N(C)c3ccc4c(C)n(C)nc4c3)n2)cc1S(N)(=O)=O` [Pazopanib] + O=C(Nc1cccc(Cl)c1)Nc1ncc(CCNc2ncnc3ccsc23)s1 [SNS314] (first compound 0.4 µM, partner dose 0.0008 µM), 72.4%.
As to `CC[C@]1(O)C[C@H]2CN(CCc3c([nH]c4ccccc34)[C@@](C(=O)OC)(c3cc4c(cc3OC)N(C=O)[C@H]3[C@@](O)(C(=O)OC)[C@H](OC(C)=O)[C@]5(CC)C=CCN6CC[C@]43[C@@H]65)C2)C1` [vincristine] + COc1ccc(-c2ccc3c(N4CCOCC4)nc(N4C[C@@H](C)O[C@@H](C)C4)nc3n2)cc1CO [KU0063794] (first compound 0.0001 µM, partner dose 0.02 µM), the “cleaved PARP positive nuclei fraction” value stood at 159%.
Take `O=c1[nH]nc(Sc2ncc([N+](=O)[O-])s2)n1-c1ccc2c(c1)OCCO2` + COc1cc(Nc2ncc(F)c(Nc3ccc4c(n3)NC(=O)C(C)(C)O4)n2)cc(OC)c1OC [Tamatinib] (first compound 0.2 µM, partner dose 0.4 µM): the “cleaved PARP positive nuclei fraction” value amounted to 51.2%.
As for `O=C(/C=C/c1cccnc1)NCCCCC1CCN(C(=O)c2ccccc2)CC1` + Cc1cc(N2CCOCC2)cc2[nH]c(-c3c(NC[C@@H](O)c4cccc(Cl)c4)cc[nH]c3=O)nc12 [BMS536924] (first compound 0.01 µM, partner dose 0.2 µM), the “cleaved PARP positive nuclei fraction” value is 139%.
For the compound `Cc1cc(Nc2cc(N3CCN(C)CC3)nc(Sc3ccc(NC(=O)C4CC4)cc3)n2)n[nH]1` [Tozasertib] + CC1(C)NC(=O)N(c2ccc([N+](=O)[O-])c(C(F)(F)F)c2)C1=O [nilutamide] (first compound 0.006 µM, partner dose 1 µM), the “cleaved PARP positive nuclei fraction” value amounted to 123%.
On to `O=C(/C=C/c1cccnc1)NCCCCC1CCN(C(=O)c2ccccc2)CC1` + O=S(=O)(c1ccccc1)N(CC(F)(F)F)c1ccc(C(O)(C(F)(F)F)C(F)(F)F)cc1 [T0901317] (first compound 0.01 µM, partner dose 1.4 µM), for which the “cleaved PARP positive nuclei fraction” value is 231%.
With `CC[C@]1(O)C[C@H]2CN(CCc3c([nH]c4ccccc34)[C@@](C(=O)OC)(c3cc4c(cc3OC)N(C=O)[C@H]3[C@@](O)(C(=O)OC)[C@H](OC(C)=O)[C@]5(CC)C=CCN6CC[C@]43[C@@H]65)C2)C1` [vincristine] + Cc1cc(N2CCOCC2)cc2[nH]c(-c3c(NC[C@@H](O)c4cccc(Cl)c4)cc[nH]c3=O)nc12 [BMS536924] (first compound 0.0001 µM, partner dose 0.2 µM) the figure was 862%; with `O=c1[nH]nc(Sc2ncc([N+](=O)[O-])s2)n1-c1ccc2c(c1)OCCO2` + O=c1cc(-c2cccc3c2Sc2ccccc2S3)oc(N2CCOCC2)c1 [KU55933] (first compound 0.2 µM, partner dose 1 µM), 57.4%; with `COc1cc([C@@H]2c3cc4c(cc3[C@@H](O[C@@H]3O[C@@H]5CO[C@@H](C)O[C@H]5[C@H](O)[C@H]3O)[C@H]3COC(=O)[C@H]23)OCO4)cc(OC)c1O` [etoposide] + O=C1NC(=O)/C(=C/c2ccc(-c3ccc(F)cc3O)o2)S1 [AS252424] (first compound 0.02 µM, partner dose 1 µM), 179%.
With `Cc1cn(-c2cc(NC(=O)c3ccc(C)c(Nc4nccc(-c5cccnc5)n4)c3)cc(C(F)(F)F)c2)cn1` [nilotinib] + CCCCCCCCCCCC1=C(O)C(=O)C=C(O)C1=O [Embelin] (first compound 0.2 µM, partner dose 1.2 µM) the figure was 140%; with `O=c1[nH]nc(Sc2ncc([N+](=O)[O-])s2)n1-c1ccc2c(c1)OCCO2` + CCCCCCCCCCCC1=C(O)C(=O)C=C(O)C1=O [Embelin] (first compound 0.2 µM, partner dose 1.2 µM), 197%; with `O=c1[nH]nc(Sc2ncc([N+](=O)[O-])s2)n1-c1ccc2c(c1)OCCO2` + O=C(Nc1cccc(Cl)c1)Nc1ncc(CCNc2ncnc3ccsc23)s1 [SNS314] (first compound 0.2 µM, partner dose 0.0008 µM), 141%.
With `CCCCCCCCCCCCCCCCCCOP(=O)([O-])OC1CC[N+](C)(C)CC1` [Perifosine] + NC(=O)Nc1cc(-c2cccc(F)c2)sc1C(=O)N[C@H]1CCCNC1 [AZD7762] (first compound 0.4 µM, partner dose 0.02 µM) the figure was 110%; with `COc1cc([C@@H]2c3cc4c(cc3[C@@H](O[C@@H]3O[C@@H]5CO[C@@H](C)O[C@H]5[C@H](O)[C@H]3O)[C@H]3COC(=O)[C@H]23)OCO4)cc(OC)c1O` [etoposide] + COc1cc(N2CCC(N3CCN(C)CC3)CC2)ccc1Nc1ncc(Cl)c(Nc2ccccc2S(=O)(=O)C(C)C)n1 [NVP-TAE684] (first compound 0.02 µM, partner dose 0.08 µM), 16.2%.
Regarding `Cc1cc(Nc2cc(N3CCN(C)CC3)nc(Sc3ccc(NC(=O)C4CC4)cc3)n2)n[nH]1` [Tozasertib] + COc1cc(N2CCC(N3CCN(C)CC3)CC2)ccc1Nc1ncc(Cl)c(Nc2ccccc2S(=O)(=O)C(C)C)n1 [NVP-TAE684] (first compound 0.006 µM, partner dose 0.08 µM), the “cleaved PARP positive nuclei fraction” value was 105%.
To `CCCCCCCCCCCCCCCCCCOP(=O)([O-])OC1CC[N+](C)(C)CC1` [Perifosine] + O=S(=O)(c1ccccc1)N(CC(F)(F)F)c1ccc(C(O)(C(F)(F)F)C(F)(F)F)cc1 [T0901317] (first compound 0.4 µM, partner dose 1.4 µM) belongs 207%.
With `CC[C@]1(O)C[C@H]2CN(CCc3c([nH]c4ccccc34)[C@@](C(=O)OC)(c3cc4c(cc3OC)N(C=O)[C@H]3[C@@](O)(C(=O)OC)[C@H](OC(C)=O)[C@]5(CC)C=CCN6CC[C@]43[C@@H]65)C2)C1` [vincristine] + Cn1cncc1[C@@](N)(c1ccc(Cl)cc1)c1ccc2c(c1)c(-c1cccc(Cl)c1)cc(=O)n2C [tipifarnib] (first compound 0.0001 µM, partner dose 0.01 µM) the figure was 461%.
`Cc1cn(-c2cc(NC(=O)c3ccc(C)c(Nc4nccc(-c5cccnc5)n4)c3)cc(C(F)(F)F)c2)cn1` [nilotinib] + CN(NC(=O)CC(=O)NN(C)C(=S)c1ccccc1)C(=S)c1ccccc1 [STA4783] (first compound 0.2 µM, partner dose 0.006 µM): the “cleaved PARP positive nuclei fraction” value amounted to 134%.
On to `O=C(/C=C/c1cccnc1)NCCCCC1CCN(C(=O)c2ccccc2)CC1` + O=C(Nc1ccccc1)c1cc([N+](=O)[O-])ccc1Cl [GW9662] (first compound 0.01 µM, partner dose 2 µM), for which the “cleaved PARP positive nuclei fraction” value worked out at 25.6%.
As for `CC[C@]1(O)C[C@H]2CN(CCc3c([nH]c4ccccc34)[C@@](C(=O)OC)(c3cc4c(cc3OC)N(C=O)[C@H]3[C@@](O)(C(=O)OC)[C@H](OC(C)=O)[C@]5(CC)C=CCN6CC[C@]43[C@@H]65)C2)C1` [vincristine] + O=c1cc(-c2cccc3c2Sc2ccccc2S3)oc(N2CCOCC2)c1 [KU55933] (first compound 0.0001 µM, partner dose 1 µM), the “cleaved PARP positive nuclei fraction” value was found to be 522%.
To `N#CC[C@H](C1CCCC1)n1cc(-c2ncnc3[nH]ccc23)cn1` [ruxolitinib] + NCC(=O)Nc1ccc(-n2nc(C(F)(F)F)cc2-c2ccc3c(ccc4ccccc43)c2)cc1 [OSU03012] (first compound 1 µM, partner dose 1 µM) belongs 90.9%; to `O=c1[nH]nc(Sc2ncc([N+](=O)[O-])s2)n1-c1ccc2c(c1)OCCO2` + CC(C)CCN1c2nc(Nc3cc(F)c(O)c(F)c3)ncc2N(C)C(=O)C1C [BID1870] (first compound 0.2 µM, partner dose 0.2 µM), 132%; to `Cc1cn(-c2cc(NC(=O)c3ccc(C)c(Nc4nccc(-c5cccnc5)n4)c3)cc(C(F)(F)F)c2)cn1` [nilotinib] + O=C(Nc1cccc(Cl)c1)Nc1ncc(CCNc2ncnc3ccsc23)s1 [SNS314] (first compound 0.2 µM, partner dose 0.0008 µM), 226%.
`Cc1ccc(Nc2nccc(N(C)c3ccc4c(C)n(C)nc4c3)n2)cc1S(N)(=O)=O` [Pazopanib] + O=S(=O)(c1ccccc1)N(CC(F)(F)F)c1ccc(C(O)(C(F)(F)F)C(F)(F)F)cc1 [T0901317] (first compound 0.4 µM, partner dose 1.4 µM): the “cleaved PARP positive nuclei fraction” value is 121%.
To `CCCCCCCCCCCCCCCCCCOP(=O)([O-])OC1CC[N+](C)(C)CC1` [Perifosine] + CC(C)(C)c1cnc(CSc2cnc(NC(=O)C3CCNCC3)s2)o1 [SNS-032] (first compound 0.4 µM, partner dose 0.01 µM) belongs 64.2%.
